The values that follow come from paper PMC3427169, “Interaction of Mycobacterium tuberculosis RshA and SigH Is Mediated by Salt Bridges” (PLoS ONE, 2012).

Protein sequences, listed by entry. Tags and fused reporters are not part of them.
UniProt P9WGH9: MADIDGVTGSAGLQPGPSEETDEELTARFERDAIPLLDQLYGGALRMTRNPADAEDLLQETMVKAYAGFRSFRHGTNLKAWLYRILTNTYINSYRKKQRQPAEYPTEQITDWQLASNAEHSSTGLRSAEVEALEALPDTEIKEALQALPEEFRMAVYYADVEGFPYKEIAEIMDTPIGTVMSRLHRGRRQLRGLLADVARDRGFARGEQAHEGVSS

Experiment [1] concerns the target T1, GST-tagged RshA, wild type (pGEX4T-1) (Mycobacterium tuberculosis H37Rv) (UniProt P9WJ69).
T1 sequence: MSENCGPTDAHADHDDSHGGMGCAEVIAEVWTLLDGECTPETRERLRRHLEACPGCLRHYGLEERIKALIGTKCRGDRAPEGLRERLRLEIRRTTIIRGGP
Put plainly: pull-down; soluble fractions of two E. coli lysates (5.0 mg crude protein each; GST fusion and 6xHis protein) mixed in 50 mM Tris HCl pH 7.5, 100 mM NaCl, 10 mM DTT, 0.01% Triton X-100, 4°C 3 h; glutathione resin 2 h 22°C; washes up to 300 mM NaCl; Coomassie and anti-6xHis blot.

The target of experiment [2] is GST-tagged SigH, wild type (pGEX4T-1) (Mycobacterium tuberculosis H37Rv) (UniProt P9WGH9). The experiment is described as above.

Results are given in words; binding and its absence hold for the method and conditions named. Binding seen in cells or lysates may run through a third protein. Some entries that bind do so weakly or less than the wild type. Tags and fused reporters may be left off the sequences shown.

With “Mycobacterium tuberculosis SigH, 6xHis-tagged (pET29a) (from UniProt P9WGH9 1-216)”, the binding entry in experiment [1] was “binds”.

B1: Mycobacterium tuberculosis anti-sigma factor RshA, 6xHis-tagged (pET29a) (natural protein)
chain: MSENCGPTDAHADHDDSHGGMGCAEVIAEVWTLLDGECTPETRERLRRHLEACPGCLRHYGLEERIKALIGTKCRGDRAPEGLRERLRLEIRRTTIIRGGP
notes: also called WT RshA; 6xHis:RshA; not shown: His6, C-terminal, kept
Turning to B1, the binding entry in experiment [2] is reported as “binds”.
